No constants are given. Whether binding was seen depends on the method and setting. Binding seen in cells or lysates may run through a third protein.
Molecular target: BECLIN1 (human (endogenous in M14-derived melanoma cells)) (UniProt Q14457)
Assay: co-IP; cells lysed at 4 °C in ice-cold lysis buffer; immunoprecipitation with BECLIN1 antibody, complexes captured with protein A+G agarose beads, eluted by boiling in SDS sample buffer, western blot

Sequences of proteins named here, by UniProt entry; tags and fusion partners are left off.
UniProt Q14457: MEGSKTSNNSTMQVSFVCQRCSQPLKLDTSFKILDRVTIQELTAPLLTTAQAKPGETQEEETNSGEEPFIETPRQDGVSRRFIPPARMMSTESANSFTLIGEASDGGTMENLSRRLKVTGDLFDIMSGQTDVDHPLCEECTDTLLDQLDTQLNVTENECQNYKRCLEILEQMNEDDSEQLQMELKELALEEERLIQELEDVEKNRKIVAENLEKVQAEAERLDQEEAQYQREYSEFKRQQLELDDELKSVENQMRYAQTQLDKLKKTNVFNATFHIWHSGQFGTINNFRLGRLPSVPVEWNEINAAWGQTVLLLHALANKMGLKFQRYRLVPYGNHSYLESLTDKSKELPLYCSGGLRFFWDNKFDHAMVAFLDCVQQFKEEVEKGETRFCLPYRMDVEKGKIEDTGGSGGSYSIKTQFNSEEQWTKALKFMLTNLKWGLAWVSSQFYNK

B1: S100A8 (protein, UniProt P05109 1-93)
chain: MLTELEKALNSIIDVYHKYSLIKGNFHAVYRDDLKKLLETECPQYIRKKGADVWFKELDINTDGAVNFQEFLILVIKMGVAAHKKSHEESHKE
B1 was tested, and the binding was “no binding”.
